# From PubChem BioAssay AID720630 (Broad Institute, 2013)
# The list shows a part of the results. Shown are side measurements of this screen, not its main read-out; they come without a call. Compounds called inactive in the main read-out are mostly missing here.
# Test: HUVEC apoptotic caspase activation, HRAS target ID – cell-based, multiple timepoints, luminescence, dry powder, mechanism study for HRAS target identification, dose response (AID 720630)
# Details: HUVEC apoptosis, caspase-3/7 luminescence
# [1] = measured here: max caspase activation timepoint 2, at 35 µM, test 2, stronger effect = higher value
smiles,measurement,setting,value
COc1cccc2c1C(=O)c1c(O)c3c(c(O)c1C2=O)C[C@@](O)(C(=O)CO)C[C@@H]3OC1C[C@H](N)[C@H](O)[C@H](C)O1 (stereo partly drawn),max activity,"measured here: max caspase activation timepoint 1, at 0.0001 µM, test 1, stronger effect = higher value",-26.3%
same,max activity,"measured here: max caspase activation timepoint 2, at 0.016 µM, test 2, stronger effect = higher value",-30.8%
same,max activity,"measured here: max caspase activation timepoint 3, at 1 µM, test 3, stronger effect = higher value",103%
Cc1onc(C(=O)N2CCN(C(c3ccc(Cl)cc3)c3ccc(OCCOCCOCCNC(=O)OC(C)(C)C)cc3)CC2)c1[N+](=O)[O-] (stereo not drawn),max activity,"measured here: max caspase activation timepoint 1, at 0.0021 µM, test 1, stronger effect = higher value",-28.2%
same,max activity,"measured here: max caspase activation timepoint 2, at 8 µM, test 2, stronger effect = higher value",-18%
CC(C)(C)OC(=O)NCCOCCOCCOc1ccc(N(C(=O)CCl)C(C(=O)NCCc2ccccc2)c2cccs2)cc1Cl (stereo not drawn),max activity,"measured here: max caspase activation timepoint 1, at 8 µM, test 1, stronger effect = higher value",22.4%
same,max activity,"measured here: max caspase activation timepoint 2, at 2.1 µM, test 2, stronger effect = higher value",-28.9%
O=C(NCCOCCOCCOc1ccc(N(C(=O)CCl)C(C(=O)NCCc2ccccc2)c2cccs2)cc1Cl)c1ccc(COC2C#CCCCCC2)cc1 (stereo not drawn),max activity,"measured here: max caspase activation timepoint 1, at 16 µM, test 1, stronger effect = higher value",19.1%
same,max activity,[1],127%
COc1ccc(N(C(=O)CCl)C(C(=O)NCCc2ccccc2)c2cccs2)cc1Cl (stereo not drawn),max activity,"measured here: max caspase activation timepoint 2, at 0.0021 µM, test 2, stronger effect = higher value",-18.4%
same,max activity,"measured here: max caspase activation timepoint 3, at 16 µM, test 3, stronger effect = higher value",323%
C#CCCCC(=O)NCCOCCOCCOc1ccc(N(C(=O)CCl)C(C(=O)NCCc2ccccc2)c2cccs2)cc1Cl (stereo not drawn),max activity,"measured here: max caspase activation timepoint 2, at 4.2 µM, test 2, stronger effect = higher value",-40.8%
CO[C@H]1C[C@@H]2CC[C@@H](C)[C@@](O)(O2)C(=O)C(=O)N2CCCC[C@H]2C(=O)O[C@H]([C@H](C)C[C@@H]2CC[C@@H](O)[C@H](OC)C2)CC(=O)[C@H](C)/C=C(\C)[C@@H](O)[C@@H](OC)C(=O)[C@H](C)C[C@H](C)/C=C/C=C/C=C/1C,max activity,[1],80.9%
